Source: paper PMC10514341, “Organisation of the orthobunyavirus tripodal spike and the structural changes induced by low pH and K^+ during entry” (Nature Communications, 2023)
Results are given in words; binding and its absence hold for the method and conditions named. Some entries that bind do so weakly or less than the wild type.

Biological target: T1, Bunyamwera virus (BUNV) glycoprotein Gc (Bunyamwera virus) (UniProt P04505)
T1 sequence (chain, N-linked glycan at N624): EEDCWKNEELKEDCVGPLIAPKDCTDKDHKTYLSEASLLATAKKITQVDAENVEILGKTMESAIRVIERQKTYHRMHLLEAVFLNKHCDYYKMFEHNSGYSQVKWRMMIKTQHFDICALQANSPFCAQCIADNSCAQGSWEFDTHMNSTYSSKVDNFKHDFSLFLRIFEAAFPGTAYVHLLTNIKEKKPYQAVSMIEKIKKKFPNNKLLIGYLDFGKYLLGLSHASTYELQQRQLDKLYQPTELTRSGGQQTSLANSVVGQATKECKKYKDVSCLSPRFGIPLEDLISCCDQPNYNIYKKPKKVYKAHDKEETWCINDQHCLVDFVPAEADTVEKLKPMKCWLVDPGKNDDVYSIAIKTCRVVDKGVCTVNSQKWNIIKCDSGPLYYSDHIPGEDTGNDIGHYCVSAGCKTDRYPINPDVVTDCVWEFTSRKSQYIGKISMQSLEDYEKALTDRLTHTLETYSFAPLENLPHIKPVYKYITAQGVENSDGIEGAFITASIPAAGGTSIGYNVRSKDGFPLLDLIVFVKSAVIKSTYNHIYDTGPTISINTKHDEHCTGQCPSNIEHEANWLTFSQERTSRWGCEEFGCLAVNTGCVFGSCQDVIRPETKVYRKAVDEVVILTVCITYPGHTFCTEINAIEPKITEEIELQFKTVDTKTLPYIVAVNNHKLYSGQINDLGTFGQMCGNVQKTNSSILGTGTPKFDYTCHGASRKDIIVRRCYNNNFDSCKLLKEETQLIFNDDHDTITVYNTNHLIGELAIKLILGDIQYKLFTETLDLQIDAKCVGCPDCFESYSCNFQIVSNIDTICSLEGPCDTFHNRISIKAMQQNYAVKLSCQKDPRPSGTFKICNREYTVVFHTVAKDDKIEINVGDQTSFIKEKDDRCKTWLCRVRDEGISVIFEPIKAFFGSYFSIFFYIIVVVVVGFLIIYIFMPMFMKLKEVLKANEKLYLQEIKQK
Experiment: cryo-EM structure; cryo-electron tomography and subtomogram averaging (PEET, C3 symmetry) of glycoprotein spikes on purified BUNV virions, pH 7.3/no K+, 2 hr at 37 °C; tripod average ~16 Å, floor average ~13 Å (GS-FSC); X-ray head/stalk structures and an AlphaFold Gn-Gc model fitted into the maps

B1: Bunyamwera virus (BUNV) glycoprotein Gn (natural protein, UniProt P04505 17-302, looked up)
chain: SPVITRCFHGGQLIAERKSQTSISEFCIKDDVSMLKSEIVYTKNDTGIFGHSKVFRHWTITDWKACNPVVTAGGSINVIEVDKNLNLVTRNYVCTGDCTITVDRKNAQIIFQTDKLNHFEVTGTTISTGWFKSKASVTLDRTCEHIKVSCGKKTLQFHACFKQHMSCVRFLHRSILPGSMAISICQNIELIIITILALCIFIIMIILTKTYICYVLIPVFMPIAFAYGWAYNRSCKKCTCCGLAYHPFTNCGSYCVCGSKFETSDRMRMHRESGLCQGFKSLRVAR
modifications: N-linked glycan at N60
notes: Glycoprotein Gn of Bunyamwera virus, cut from the M segment polyprotein (Gn-NSm-Gc); ectodomain 17-205; membrane-anchored in the virion envelope; Native Gn in the envelope of purified virions; also called BUNV Gn
B1 was tested, and the binding was “binds”.
